Hit rate of the full screen: of about 410,000 compounds, about 310 (0.076%) were called active. Inconclusive results, whose numbers are uncertain, are shown with a selection of clear calls. Calls follow the shape of the dose curve; as a rule, active = well fitted activation curve with a large enough effect; inconclusive = small, poorly fitted or top-dose-only effect, or another doubt; inactive = no such curve, though single readings can be large or run the other way. Potencies beside an inconclusive call are fits to weak or partial responses and may not hold up.
Target: Parathyroid hormone/parathyroid hormone-related peptide receptor (Homo sapiens) (UniProt Q03431)
Assay: qHTS for PTHR1 Agonists: Primary Screen; also: nearly all actives have a fitted effect of over 55% in size
Conditions: HEK293 GP2 PTHR1 cells, GloSensor cAMP luminescence, 1 h; activation: at 115 µM (top of the series) unless noted; series mostly up to 115 µM
In short: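 HEK-293-derived GP2 cells expressing PTHR1 and a GloSensor cAMP reporter, 3,000/well, plated overnight, given luciferin plus IBMX (each 0.5 mM as added) for 1 h at 37 °C, then compound for 1 h at 37 °C. Luminescence was read after 15 min at room temperature.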
Potency is read from the fitted curve at half-maximal effect.

The chains behind the UniProt entries cited, without tags or fusion partners. Where a name states a change or a piece, a line headed by the entry shows the natural chain unless it says otherwise.
UniProt Q03431: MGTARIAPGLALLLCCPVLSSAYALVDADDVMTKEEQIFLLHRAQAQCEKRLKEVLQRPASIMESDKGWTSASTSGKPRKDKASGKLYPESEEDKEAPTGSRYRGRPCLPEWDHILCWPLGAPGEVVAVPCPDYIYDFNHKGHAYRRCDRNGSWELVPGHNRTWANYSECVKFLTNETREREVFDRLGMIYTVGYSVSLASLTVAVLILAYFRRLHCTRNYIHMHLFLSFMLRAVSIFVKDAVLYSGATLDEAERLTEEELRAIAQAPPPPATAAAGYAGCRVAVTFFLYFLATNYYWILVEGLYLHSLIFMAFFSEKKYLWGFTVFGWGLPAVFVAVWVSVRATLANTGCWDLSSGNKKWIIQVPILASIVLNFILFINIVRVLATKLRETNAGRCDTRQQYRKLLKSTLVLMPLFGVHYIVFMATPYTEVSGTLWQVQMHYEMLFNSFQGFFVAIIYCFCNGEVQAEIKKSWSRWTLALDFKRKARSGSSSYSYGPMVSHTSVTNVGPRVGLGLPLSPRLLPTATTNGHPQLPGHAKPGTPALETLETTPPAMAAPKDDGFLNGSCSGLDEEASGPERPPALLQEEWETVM

activation, inconclusive:
O=C(O)C1CCN(C(=O)COc2ccc3c4c(c(=O)oc3c2)CCC4)CC1 -1.23% [activator] [at 57.5 µM], Cc1cc(C)n2nc(C(=O)OCC(=O)Nc3ccc4c(c3)OCCO4)nc2n1 45.6% [activator], COc1ccc(C(=O)NCC(=O)OCC(=O)c2ccc3c(c2)NC(=O)CO3)cc1OC -65.7% [activator], Cc1ccc(CNC(=O)c2ccc3c(c2)NC(=O)C(CS(=O)(=O)Cc2cccc(F)c2)N3)cc1 (stereo not given) 53.9% [activator], OCCC1CN(Cc2nc3ccccc3s2)CCN1C1CCCC1 (stereo not given) 53.9% [activator], O=C(NCc1ccccc1Br)c1ccco1 40.8% [activator] [at 57.5 µM]

Potency, inconclusive:
N#Cc1ccc(COC(=O)c2cc(=O)c3ccccc3o2)cc1 5.01 µM [activator, full curve, poor fit], Cc1ccc(CNC(=O)CCC(=O)N2CC3CCCN3c3ccccc32)cc1 (stereo not given) 126 µM [activator, single point], CC(C)OCP(=O)(c1ccccc1)c1ccccc1 1.78 µM [activator, partial curve, poor fit], CCCCN(C(=O)c1ccc(-c2ccc([N+](=O)[O-])cc2)o1)c1c(N)n(CCCC)c(=O)[nH]c1=O 158 µM [activator, single point], Cc1cccc(N2C(=O)C(CC(=O)Nc3cccc(F)c3)N(CCc3ccncc3)C2=O)c1 (stereo not given) 79.4 µM [activator, partial curve, poor fit], CCC(=O)Nc1nc(C)c(Oc2ccccc2)c(=O)[nH]1 31.6 µM [activator, single point], Cc1cc(-c2nn(-c3ccccc3F)cc2CN2CCC(O)CC2)c(C)s1 126 µM [activator, single point]

Potency, inactive:
COc1n[nH]c(C(=O)Nc2cc(Cl)ccc2Cl)c1[N+](=O)[O-], CCNC(=S)Nc1ccc(N(c2ccccc2)C(C)C)cc1, CCCn1nnnc1NCc1ccccc1Cl, COc1cccc(CNC(=O)COc2cc3c(c4oc(=O)cc(C)c24)CCC(C)(C)O3)c1, CCOC(=O)CCNC(=O)N1CCN(S(=O)(=O)c2ccc3c(ccn3C)c2)CC1, Cc1cccc(C)c1NC(=O)C[N+](C)(C)CC(O)COc1cccc2ccccc12 (stereo not given), CNc1nnc(-c2cc3cc(Cl)ccc3oc2=O)s1

From PubChem BioAssay AID743266 (National Center for Advancing Translational Sciences (NCATS), 2014)
